Values joined by “and” are separate entries in the source; they are usually repeats but may differ in a detail not shown here. Identical values can stand only once. The list shows a part of the results. These are further read-outs of the screen, such as a control signal, another cell line or another target. No call is given for them. Compounds called inactive in the main read-out are mostly missing here. Words in brackets tell the shape of the fitted curve; partial curves, single points and poor fits give uncertain potencies.
Assay: Cell signaling CRE-BLA (Fsk stim)
Details: CHO CRE-bla reporter (cAMP response element driving beta-lactamase), forskolin EC10, beta-lactamase ratio; measured here: 460 nm blue channel
Outline: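 AC50 values, positive or negative, reflect shifts in EC10 NKH 477-induced CRE-bla reporter activity in CHO cells. Incubation lasted 3 h at 37 °C before CCF4 substrate (2 h, room temperature) and ratiometric 460/530 nm reading.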

Row | SMILES | AC50
1 | NC(=NCCc1ccc(I)cc1)SCCCc1cnc[nH]1 | 31.6 µM [falling, single point]
2 | COc1cc2c(cc1OC)[C@@]13CCN4CC5=CCO[C@H](CC(=O)O)[C@@H]([C@H]1N2)[C@H]5C[C@H]43 | 1 µM [rising, single point]
3 | COc1ccc(C[C@@H]2C(=O)N[C@H](C)C(=O)N(C)[C@@H]3C(=O)N(C)[C@@H](Cc4ccc(O)c(c4)Oc4ccc(cc4)[C@H]3O)C(=O)N[C@@H](C)C(=O)N[C@H](C)C(=O)N2C)cc1 | 5.01 µM [falling, single point]
4 | CCC(=NCc1ccco1)c1c(O)n(-c2ccccc2)c(=O)[nH]c1=O | 10 µM [rising, single point]
5 | CCN1c2nc3ccccn3c(=O)c2CC2(C(=O)N(C)C(=O)N(C)C2=O)C1C (configuration not stated) | 3.98 µM [falling, partial curve]
6 | O=C(c1cc2nc(-c3ccccc3)cc(-c3ccccc3)n2n1)N1CCC2(CC1)OCCO2 | 2 µM [rising, full curve]
7 | NCCc1c[nH]c2ccc(O)cc12 | 25.1 µM [falling, partial curve, poor fit]
8 | CCN1CCN(Cc2ccc(C)cc2C)CC1 | 3.98 µM [falling, single point]
9 | Cc1nc2cnc(N3CCNCC3)nc2n(C)c1=O | 12.6 µM [rising, partial curve, poor fit]
10 | Oc1c(Cl)c(Cl)c(Cl)c(Cl)c1Cl | 25.1 µM [falling, partial curve, poor fit]
11 | CC(=NCCC1=CCCCC1)c1c(O)[nH]c(=O)[nH]c1=O | 20 µM [rising, single point]
12 | COc1ccc(OC)c(-n2c(O)c(C=NCc3ccc4c(c3)OCO4)c(=O)[nH]c2=O)c1 | 10 µM [rising, single point]
13 | COc1ccc2c(c1)[nH]c1c(C)nccc12 | 6.31 µM [falling, partial curve]
14 | Cc1nc2nc(C)c(CCC(=O)N3CCC4(CC3)OCCO4)c(C)n2n1 | 0.00398 µM [falling, full curve]
15 | CCCCn1c(=O)c(C(=O)NCc2ccncc2)c(O)c2ccccc21 | 2.51 µM [rising, partial curve]
16 | CCCN1CCc2cc(O)cc3c2[C@H]1Cc1ccc(O)c(O)c1-3 | 12.6 µM [falling, single point]
17 | CCCN(CCC)[C@@H]1CCc2cccc(O)c2C1 | 10 µM [rising, partial curve]
18 | COc1ccc(OC)c(N2C(=O)NC(=O)C3(Cc4cc(C)ccc4N(C)C3)C2=O)c1 (configuration not stated) | 3.98 µM [falling, single point]
19 | COc1ccc(S(=O)(=O)NC(CC(=O)N2CCC3(CC2)OCCO3)c2ccco2)cc1 (configuration not stated) | 0.794 µM [falling, partial curve]
20 | Clc1ccc([C@@H]2C[C@H]3CC[C@@H]2N3)cn1 | 31.6 µM [rising, partial curve, poor fit]
21 | c1cc(C2N3CCCN2CC3)ccn1 (configuration not stated) | 1 µM [rising, single point]

Row | SMILES | AC50
22 | CN1C2CCC1CC(OC(=O)CCN1CCCC1)C2 (configuration not stated) | 31.6 µM [falling, single point]
23 | CC(=NCc1cccnc1)c1c(O)n(C2CCCCC2)c(=O)[nH]c1=O | 3.16 µM [falling, single point]
24 | O=c1c2ccccc2nc(-c2ccco2)n1-c1ccncc1 | 20 µM [rising, single point]
25 | O=[N+]([O-])/C=C/c1ccccc1 | 10 µM [rising, partial curve]
26 | O=C(c1cc(-c2ccncc2)nc2ccccc12)N1CCC2(CC1)OCCO2 | 3.98 µM [falling, single point]
27 | O=C(Cc1ccccc1)OCc1ccccc1 | 0.501 µM [falling, full curve, poor fit]
28 | CN(C)C(=S)SSC(=S)N(C)C | 31.6 µM [falling, single point]
29 | Cn1nc(-c2ccc(OCC(=O)N3CCN(Cc4ccccc4)CC3)cc2)c2ccccc2c1=O | 0.251 µM [rising, partial curve, poor fit]
30 | Cc1cc(OCC(=O)Nc2cc(C)nn2-c2ccccn2)c2c3c(c(=O)oc2c1)CCC3 | 25.1 µM [rising, single point]
31 | Cc1nnc2ccc(-c3cccc(C(F)(F)F)c3)nn12 | 15.8 µM [rising, partial curve, poor fit]
32 | CN1Cc2c(ccc3c2OCO3)[C@@H]2[C@@H](O)Cc3cc4c(cc3[C@@H]21)OCO4 | 12.6 µM [rising, partial curve] and 3.98 µM [rising, full curve]
33 | O=C1C[C@@H]2OCC=C3CN4CC[C@]56c7ccccc7N1[C@H]5[C@@H]2[C@H]3C[C@@H]46 | 39.8 µM [falling, partial curve, poor fit]
34 | Nc1c(C(=O)OC2CCCCC2)c2nc3ccccc3nc2n1CC1CCCO1 (configuration not stated) | 12.6 µM [rising, partial curve]
35 | CCC(=NC1CC1)c1c(O)n(C2CCCCC2)c(=O)[nH]c1=O | 10 µM [rising, partial curve]
36 | Nc1c(C(=O)NCCc2ccccc2)c2nc3ccccc3nc2n1CCN1CCOCC1 | 12.6 µM [rising, partial curve]
37 | c1cc2n(c1)-c1c(ccc3c1OCO3)CNC2c1ccc2c(c1)OCO2 (configuration not stated) | 5.01 µM [falling, full curve]
38 | CCCOC(=O)COc1cc(C)cc2oc(=O)c3c(c12)CCC3 | 1.26 µM [falling, partial curve]
39 | c1ccc2cc3c(cc2c1)-c1cccc2cccc-3c12 | 1 µM [rising, full curve]
40 | CCCCn1c(O)c(C(CC)=NCCc2ccccc2)c(=O)[nH]c1=O | 7.94 µM [rising, partial curve]
41 | Cc1c(C(=O)c2ccc3ccccc3c2)c2cccc3c2n1[C@H](CN1CCOCC1)CO3 | 12.6 µM [falling, partial curve, poor fit]
42 | CC(C)NC[C@H](O)c1ccc(N)c(C#N)c1 | 20 µM [falling, single point]

From PubChem BioAssay AID662 (National Center for Advancing Translational Sciences (NCATS), 2007)
